The supplement of paper PMC8426693
The other results are listed elsewhere or left out.

What follows are compounds tested on SARS-CoV-2 3_s2m RNA (assay: NMR binding call after quantification (hit when 2 of 3 NMR criteria are met) (binary (1 = binding, 0 = not binding)); higher = binding). Settings: RNA concentration 10 µM; fragment concentration 200 µM; 293 K.

| Structure (SMILES) | NMR binding call |
| --- | --- |
| O=C(Cc1ccc(F)cc1)NC1CCCCC1 | 0 |
| CC1CCNC(C(N)=O)C1 (stereo not given) | 0 |
| Cc1nc(CC(=O)N2CCOCC2)cs1 | 0 |
| CC(=O)Nc1cccc2nonc12 | 0 |
| Cc1[nH]cnc1CN1CCc2ccccc2C1 | 0 |
| NC(=O)c1ccc(NC(=O)c2ccccc2)cc1 | 0 |
| Cc1cccc(NC(=O)C2CCCN2)n1 (stereo not given) | 0 |
| CC(=O)NCCN1CCCCCC1 | 0 |
| Cn1cc(Oc2ncncc2Cl)cn1 | 0 |
| COc1ccc(Cl)cc1C(=O)NCC(C)C | 0 |
| OCc1ccc(-n2cnc3ccccc32)cc1 | 0 |
| Clc1cccc(CN2CCOCC2)c1 | 0 |
| CC(C(N)=O)N1CCN(S(C)(=O)=O)CC1 (stereo not given) | 0 |
| NC(=S)Nc1ccccc1OC(F)(F)F | 0 |
| CCOC(=O)c1sc(N(C)C(C)=O)nc1C | 0 |
| CC(C)(O)CN1CCC(N)C1 (stereo not given) | 0 |
| c1cc(NCC2CCCO2)ccn1 (stereo not given) | 0 |
| Cc1cc(C(=O)NCC2CCCO2)ns1 (stereo not given) | 0 |
| CC(Oc1ccc(C#N)cc1)C(N)=O (stereo not given) | 0 |
| Cc1cnc(NC(=O)CCC2CCCC2)s1 | 0 |

3 consecutive records from above, for reference:

| Structure (SMILES) | NMR binding call |
| --- | --- |
| NC(=S)Nc1ccccc1OC(F)(F)F | 0 |
| CCOC(=O)c1sc(N(C)C(C)=O)nc1C | 0 |
| CC(C)(O)CN1CCC(N)C1 (stereo not given) | 0 |

Remaining list, next part.

| Structure (SMILES) | NMR binding call |
| --- | --- |
| CN1CCC(Oc2cccc(F)c2)C1=O (stereo not given) | 0 |
| Cc1cccc(C(=O)N(C)C)c1C | 0 |
| CNC1(C(N)=O)CCCC1 | 0 |
| Cc1ccc(CNC(=O)Cc2cccs2)cc1 | 0 |
| CN1CCN(C(=O)C2CCCO2)CC1 (stereo not given) | 0 |
| Cc1nc(C(=O)N2CCCC2)c(C)s1 | 0 |
| CC(C)N(C)S(=O)(=O)N1CCNC(=O)C1 | 0 |
| CS(=O)(=O)NC1CCNCC1 | 0 |
| O=C(Nc1nccs1)C1CC1c1ccccc1 (stereo not given) | 0 |
| Nc1ccccc1OCc1ccccc1 | 0 |
| CC(=O)c1ccc(OCC(=O)O)cc1 | 0 |
| O=C(Nc1nncs1)c1ccccc1F | 0 |
| CCc1nnc(NC(=O)CN(C)C)s1 | 0 |
| O=C(NCCC1=CCCCC1)c1cnccn1 | 0 |
| CNC(=O)NCc1c(F)cccc1Cl | 0 |
| CC(N)C(=O)N1CCCCC1C (stereo not given) | 0 |
| CC(C)NC(=O)N(C)C1CCS(=O)(=O)C1 (stereo not given) | 0 |
| CC(O)CCn1cccn1 (stereo not given) | 0 |
| N#Cc1ccc(CNCc2ccc(F)cc2)cc1 | 0 |
| CC(O)COc1cccc(F)c1 (stereo not given) | 0 |
